Test results: patent US20060140858A1, “Drug pre-targeting by means of bi-specific antibodies and hapten constructs comprising a carrier peptide and the active agent(s)” (Immunomedics, Inc., priority 2002, published 2006)

Key:
GW 39 tumor xenografts = experiment: Pretargeting: 125-I-hMN-14 × 734 bsAb, 24 h later 99m-Tc-IMP-192, biodistribution; assay type: in vivo, Nude mice
GW-39 = details: for Radiation absorbed dose (normalized): normalized to 1500 cGy to the kidneys

Compound | % saturation on hMN-14 × 734 (available DTPA binding sites on tumor bound bsAb filled) (GW 39 tumor xenografts; 30 min) [%] | % saturation on hMN-14 × 734 (available DTPA binding sites on tumor bound bsAb filled) (GW 39 tumor xenografts; 1 h) [%] | % saturation on hMN-14 × 734 (available DTPA binding sites on tumor bound bsAb filled) (GW 39 tumor xenografts; 3 h) [%] | % saturation on hMN-14 × 734 (available DTPA binding sites on tumor bound bsAb filled) (GW 39 tumor xenografts; 24 h) [%] | Radiation absorbed dose (GW-39; Blood) [cGy/mCi] | Radiation absorbed dose (normalized) (GW-39; Blood) [cGy] | Radiation absorbed dose (GW-39; Kidneys) [cGy/mCi] | Radiation absorbed dose (normalized) (GW-39; Kidneys) [cGy] | Radiation absorbed dose (GW-39; Liver) [cGy/mCi] | Radiation absorbed dose (normalized) (GW-39; Liver) [cGy] | Radiation absorbed dose (GW-39; Lungs) [cGy/mCi] | Radiation absorbed dose (normalized) (GW-39; Lungs) [cGy] | Radiation absorbed dose (GW-39; Tumor) | Radiation absorbed dose (normalized) (GW-39; Tumor)
CC(=O)N[C@@H](CCCCNC(=O)CN(CCN(CCN(CC(=O)O)CC(=O)O)CC(=O)O)CC(=O)O)C(=O)N[C@@H](Cc1ccc(O)cc1)C(=O)N[C@@H](CCCCNC(=O)CN(CCN(CCN(CC(=O)O)CC(=O)O)CC(=O)O)CC(=O)O)C(=O)N[C@@H](CCCCNC(=O)[C@H](CS)NC(=O)C=NNC(N)=S)C(N)=O [IMP 192, Ac-Lys(DTPA)-Tyr-Lys(DTPA)-Lys(Tscg-Cys)-NH2] (Ac-K(DTPA)YK(DTPA)K([Cys-X1])-NH2) | 25.4 | 25.8 | 25 | 28 |  |  |  |  |  |  |  |  |  | 
^90Y-IMP-241: IMP 241 divalent HSG-DOTA peptide radiolabeled with ^90Y (FKYK; D-residues) |  |  |  |  | 416 | 364 | 1713 | 1500 | 551 | 482 | 277 | 242 | 14,366 cGy/mCi | 12,578 cGy

Like-named read-outs stand apart in the source and are kept apart here. Where a SMILES comes first, the peptide text is derived from it. Side-chain parts run from the residue outwards. The star is where a group is joined. DTPA = O=C(O)CN(CCN(CC(=O)O)CC(=O)O)CCN(CC(=O)O)CC(=O)*; X1 = NC(=S)NN=CC(=O)*
